Test results reported in patent publication US10722530B2, “Methods of diagnosing and treating cancer” (CASE WESTERN RESERVE UNIVERSITY, priority 2016, dated 2020).
For at least one compound, name, drawing or mass did not settle the structure.

Experiments:
[1] = tested on: DLD1 colon cancer cells; conditions: DLD1 shUDG vs shSCR
[2] = tested on: HEC1A endometrial cancer cells; assay: Colony survival assay, shSCR and shUDG cells; assay type: cell-based, human; conditions: HEC1A shUDG vs shSCR

With Cn1nnc2c(C(N)=O)ncn2c1=O [temozolomide] the “effect of UDG depletion on drug sensitivity” value [1] was “no further sensitivity” and the “effect of UDG depletion on drug sensitivity” value [2] was “no further sensitivity”.
